Laboratory results: PubChem BioAssay AID652272 (Drosophila RNAi Screening Center, 2013)
The screen tested about 21,000 reagents; this is an unselected part of those with a known target gene and a result. Of all reagents, 503 (2.4%) got an active call. 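Raw plate light values, not normalised; calls rest on replicate z-scores that were not deposited; hits include reporter decreases as well as increases.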 No sequences are given here. Not stated in the record: the amount of reagent, the time to read-out.

Screen: 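Genes whose knock-down decreases or increases Hedgehog reporter output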 (primary screen)
System: Drosophila clone 8 (Cl8) cells
Reagents: long dsRNA against Drosophila genes
Measurement: 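Firefly light from a Hedgehog-responsive ptc promoter reporter and Renilla reference light, both read on a plate reader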
Scale: firefly Hh reporter signal: higher = more ptc reporter light; Renilla reference signal: higher = more Renilla control light
Rule for the call: 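Called a hit if the two-replicate mean z-score lies below -2 or above +3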
Calls: active = hit: reporter lowered or raised; inactive = not a hit

| Target gene | DRSC id | firefly Hh reporter signal, replicate 1 | firefly Hh reporter signal, replicate 2 | firefly Hh reporter signal, replicate 3 | Renilla reference signal, replicate 1 | Renilla reference signal, replicate 2 | Call |
| --- | --- | --- | --- | --- | --- | --- | --- |
| CG12691 (GeneID 31370) | DRSC17880 | 74572 | 1.41e5 | – | 2273 | 5184 | inactive |
| CG15536 (GeneID 43610) | DRSC15072 | 1.03e5 | 7.80e5 | 1.65e5 | 1560 | 5777 | inactive |
| Oseg2 (GeneID 38282) | DRSC08343 | 73308 | 40691 | – | 2326 | 3176 | inactive |
| 5-HT7 (GeneID 43669) | DRSC12635 | 80453 | 86918 | – | 1779 | 2226 | inactive |
| Picot (GeneID 36865) | DRSC07508 | 1.45e5 | 1.23e5 | – | 5654 | 5867 | inactive |
| CG1724 (GeneID 33097) | DRSC20548 | 64258 | 1.82e5 | – | 2050 | 8088 | inactive |
| CG32188 (GeneID 317901) | DRSC09510 | 2.06e5 | – | – | 5233 | – | inactive |
| CG34231 (GeneID 5740811) | DRSC05323 | 1.30e5 | 2.03e5 | – | 3747 | 8680 | inactive |
| GstD11 (GeneID 41512) | DRSC15251 | 62538 | 1.48e5 | – | 2194 | 3492 | inactive |
| euc (GeneID 42271) | DRSC14492 | 6.28e5 | 1.06e5 | – | 33623 | 3465 | inactive |
| CG13334 (GeneID 36510) | DRSC06369 | 70611 | 37236 | – | 1893 | 3045 | inactive |
| CG3491 (GeneID 34870) | DRSC01934 | 72164 | 62038 | – | 1985 | 5363 | inactive |
| Tmtc3 (GeneID 37401) | DRSC04444 | 67753 | 62491 | – | 1868 | 2396 | inactive |
| Orai (GeneID 37040) | DRSC05684 | 1.07e5 | 2.44e5 | – | 3333 | 10242 | inactive |
| Kdm4B (GeneID 318918) | DRSC06862 | 99788 | 72588 | – | 3956 | 1328 | inactive |
| Tsp42Eg (GeneID 35616) | DRSC06112 | 1.19e5 | 93880 | – | 5130 | 3817 | inactive |
| Spg7 (GeneID 31253) | DRSC18469 | 49617 | 1.89e5 | – | 802 | 7904 | inactive |
| Vang (GeneID 35922) | DRSC07570 | 1.04e5 | 51864 | – | 2096 | 5003 | inactive |
| CG31104 (GeneID 43054) | DRSC14658 | 5.26e5 | 1.11e5 | – | 25124 | 3172 | inactive |
| Sec23 (GeneID 40694) | DRSC12387 | 1.25e5 | 7.79e5 | 79620 | 4996 | 44822 | inactive |
| Ocho (GeneID 39621) | DRSC11239 | 1.06e5 | – | – | 1808 | 3293 | inactive |
| CG8414 (GeneID 36774) | DRSC07168 | 74490 | 55348 | – | 2295 | 3996 | inactive |
| Cyp304a1 (GeneID 41586) | DRSC16623 | 1.02e5 | 98800 | – | 2347 | 2123 | inactive |
| Tcs4 (GeneID 32982) | DRSC19587 | 1.18e5 | 1.15e5 | – | 2944 | 3091 | inactive |
| Naa35 (GeneID 37866) | DRSC04447 | 1.09e5 | 38849 | – | 4131 | 1915 | inactive |
| Gdap1 (GeneID 38597) | DRSC10437 | 45530 | 50980 | – | 3978 | 3461 | inactive |
| CG15375 (GeneID 31356) | DRSC18045 | 1.60e5 | 3.58e5 | – | 5725 | 13154 | inactive |
| Coq5 (GeneID 32272) | DRSC19849 | 1.27e5 | 7.25e5 | 3.48e5 | 2881 | 4668 | inactive |
| RecQ4 (GeneID 53438) | DRSC11265 | 50618 | 40308 | – | 4642 | 2912 | inactive |
| SPARC (GeneID 43230) | DRSC14123 | 77830 | 1.00e5 | – | 2921 | 3424 | inactive |
| CG14312 (GeneID 42195) | DRSC14791 | 4.92e5 | 75376 | – | 28317 | 1673 | inactive |
| CG15734 (GeneID 32177) | DRSC19701 | 75826 | 3.39e5 | – | 2893 | 12688 | inactive |
| dco (GeneID 43673) | DRSC16929 | 94445 | 68744 | – | 1857 | 1865 | inactive |
| CG6484 (GeneID 36994) | DRSC06991 | 91506 | 93664 | – | 4424 | 4131 | inactive |
| Jheh1 (GeneID 251984) | DRSC06529 | 96905 | 66417 | – | 3890 | 2473 | inactive |
| CG11018 (GeneID 37259) | DRSC06024 | 57373 | 62273 | – | 2666 | 2787 | inactive |
| AOX2 (GeneID 41895) | DRSC15338 | 88229 | 67096 | – | 1760 | 2016 | inactive |
| Rh4 (GeneID 39887) | DRSC11268 | 2.07e5 | – | – | 9601 | 5256 | inactive |
| OtopLb (GeneID 33539) | DRSC00594 | 70448 | 61308 | – | 3472 | 2883 | inactive |
| Dtwd2 (GeneID 40873) | DRSC12501 | 73948 | 1.06e5 | – | 3219 | 3097 | inactive |
| sdk (GeneID 31017) | DRSC18831 | 1.00e5 | 88800 | – | 2491 | 2546 | inactive |
| Obp58b (GeneID 37607) | DRSC04161 | 89920 | 53005 | – | 2291 | 4380 | inactive |
| AIMP2 (GeneID 39690) | DRSC09877 | 82695 | 45946 | – | 3843 | 1809 | inactive |
| CG14563 (GeneID 40435) | DRSC11724 | 1.26e5 | 93892 | – | 4281 | 3043 | inactive |
| sqz (GeneID 42300) | DRSC16980 | 5.47e5 | 69633 | – | 31440 | 2064 | inactive |
| Tasp1 (GeneID 39757) | DRSC10495 | 62412 | 64403 | – | 2544 | 2386 | inactive |
| Paics (GeneID 32228) | DRSC20305 | 1.00e5 | 85524 | – | 2265 | 1888 | inactive |

Quoted from the entries so far (8 entries):
| Target gene | DRSC id | firefly Hh reporter signal, replicate 1 | firefly Hh reporter signal, replicate 2 | firefly Hh reporter signal, replicate 3 | Renilla reference signal, replicate 1 | Renilla reference signal, replicate 2 | Call |
| --- | --- | --- | --- | --- | --- | --- | --- |
| 5-HT7 (GeneID 43669) | DRSC12635 | 80453 | 86918 | – | 1779 | 2226 | inactive |
| Picot (GeneID 36865) | DRSC07508 | 1.45e5 | 1.23e5 | – | 5654 | 5867 | inactive |
| CG1724 (GeneID 33097) | DRSC20548 | 64258 | 1.82e5 | – | 2050 | 8088 | inactive |
| CG32188 (GeneID 317901) | DRSC09510 | 2.06e5 | – | – | 5233 | – | inactive |
| CG34231 (GeneID 5740811) | DRSC05323 | 1.30e5 | 2.03e5 | – | 3747 | 8680 | inactive |
| GstD11 (GeneID 41512) | DRSC15251 | 62538 | 1.48e5 | – | 2194 | 3492 | inactive |
| euc (GeneID 42271) | DRSC14492 | 6.28e5 | 1.06e5 | – | 33623 | 3465 | inactive |
| CG13334 (GeneID 36510) | DRSC06369 | 70611 | 37236 | – | 1893 | 3045 | inactive |

More entries follow:
| Target gene | DRSC id | firefly Hh reporter signal, replicate 1 | firefly Hh reporter signal, replicate 2 | firefly Hh reporter signal, replicate 3 | Renilla reference signal, replicate 1 | Renilla reference signal, replicate 2 | Call |
| --- | --- | --- | --- | --- | --- | --- | --- |
| CG34183 (GeneID 5740752) | DRSC01099 | 5.94e5 | 3.17e5 | – | 28568 | 13286 | inactive |
| Hn (GeneID 38871) | DRSC11184 | 1.07e5 | 72474 | – | 4680 | 3001 | inactive |
| pen-2 (GeneID 251430) | DRSC05722 | 1.21e5 | 2.84e5 | – | 3805 | 11865 | inactive |
| wake (GeneID 42676) | DRSC16148 | 4.83e5 | 1.06e5 | – | 23633 | 3312 | inactive |
| wake (GeneID 42676) | DRSC16149 | 4.40e5 | 1.22e5 | – | 21601 | 3773 | inactive |
| CG42821 (GeneID 3885579) | DRSC13231 | 53096 | 2.87e5 | – | 10839 | 6523 | inactive |
| CG16719 (GeneID 39131) | DRSC10222 | 1.07e5 | 67334 | – | 4471 | 3076 | inactive |
| LS2 (GeneID 37681) | DRSC04340 | 79383 | 61735 | – | 1424 | 5037 | inactive |
| CG17032 (GeneID 39736) | DRSC10241 | 1.34e5 | – | – | 2210 | 4071 | inactive |
| Mrp5 (GeneID 42362) | DRSC15597 | 5.85e5 | 93016 | – | 29238 | 2771 | inactive |
| Mrp5 (GeneID 42362) | DRSC15598 | 6.30e5 | 1.52e5 | – | 32460 | 4389 | inactive |
| CG7557 (GeneID 39278) | DRSC10878 | 1.77e5 | 1.17e5 | – | 6488 | 4572 | inactive |
| sprt (GeneID 246397) | DRSC07323 | 77120 | 52528 | – | 3626 | 2389 | inactive |
| Zip42C.2 (GeneID 35580) | DRSC05004 | 1.59e5 | 71533 | – | 3424 | 3666 | inactive |
| stas (GeneID 32737) | DRSC20104 | 1.80e5 | 1.95e5 | – | 4320 | 4301 | inactive |
| CG11378 (GeneID 31060) | DRSC18627 | 64280 | 1.47e5 | – | 1914 | 6153 | inactive |
| fend (GeneID 31843) | DRSC17601 | 5.58e5 | 1.32e5 | – | 29666 | 2552 | inactive |
| fend (GeneID 31843) | DRSC17867 | 1.07e5 | 4.59e5 | – | 3504 | 15621 | inactive |
| ssp (GeneID 39375) | DRSC10252 | 1.31e5 | 69491 | – | 5472 | 3289 | inactive |
| Lsp1alpha (GeneID 32199) | DRSC20258 | 81691 | 2.02e5 | – | 3100 | 8752 | inactive |
| CG31251 (GeneID 318645) | DRSC16247 | 5.26e5 | 99738 | – | 27207 | 2732 | inactive |
| CG31050 (GeneID 318571) | DRSC13883 | 59956 | 2.23e5 | – | 14354 | 5480 | inactive |
| Tif-IA (GeneID 35454) | DRSC03717 | 77067 | 46375 | – | 4313 | 2946 | active |
| Tif-IA (GeneID 35454) | DRSC03726 | 64488 | 32490 | – | 2672 | 4877 | active |
| CG13962 (GeneID 35270) | DRSC02304 | 85152 | 67479 | – | 2249 | 4984 | inactive |
| Herp (GeneID 34065) | DRSC02394 | 1.09e5 | 57337 | – | 3312 | 2425 | inactive |
